Data source: PubChem BioAssay AID1259405 (NCATS, 2018)
Here is an unselected part of about 50,000 reagents. About 4,000 of all reagents (8%) were called active. 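Mouse siRNA library applied to hamster cells; one well for each siRNA.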 Entries without a mark were called inactive. The numbers tell different reagents against one gene apart. No sequences are given here.

Assay: 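Mouse-designed siRNAs used to find CHO productivity engineering targets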 (primary screen)
Cells: Chinese hamster CHO-K1 ovary cells with stable secreted eGFP expression
Knock-down reagent: single siRNA against mouse genes, 0.8 pmol siRNA per well (2 µl of 400 nM stock)
Time to read-out: 3 days
Read-out: 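Percent of the per-plate non-targeting control median for intracellular GFP per well by laser scanning cytometry and for cell viability by ATP luminescence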
Reading the numbers: GFP, % of control: higher = more GFP per well, higher productivity; viability (ATP), % of control: higher = more viable cells (more ATP)
Call rule: 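a knock-down is called active if GFP reaches 120% or more of non-targeting control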

Ncoa4 #1 | GFP, % of control: 79.2; viability (ATP), % of control: 62.3
Ncoa4 #2 | GFP, % of control: 85.7; viability (ATP), % of control: 83.5
Ncoa4 #3 | GFP, % of control: 93.9; viability (ATP), % of control: 68.1
Yipf5 #1 | GFP, % of control: 65; viability (ATP), % of control: 70
Yipf5 #2 | GFP, % of control: 23; viability (ATP), % of control: 28.7
Yipf5 #3 | GFP, % of control: 95.1; viability (ATP), % of control: 81.6
Ncoa7 #1 | GFP, % of control: 221 (active); viability (ATP), % of control: 98.4
Ncoa7 #2 | GFP, % of control: 94; viability (ATP), % of control: 74.7
Ncoa7 #3 | GFP, % of control: 157 (active); viability (ATP), % of control: 133
Acer1 #1 | GFP, % of control: 113; viability (ATP), % of control: 99
Acer1 #2 | GFP, % of control: 125 (active); viability (ATP), % of control: 65.8
Acer1 #3 | GFP, % of control: 46; viability (ATP), % of control: 68.4
Ahrr #1 | GFP, % of control: 45.4; viability (ATP), % of control: 56.8
Ahrr #2 | GFP, % of control: 84; viability (ATP), % of control: 69.8
Cideb #1 | GFP, % of control: 109; viability (ATP), % of control: 121
Cideb #2 | GFP, % of control: 65.9; viability (ATP), % of control: 58.5
Cideb #3 | GFP, % of control: 138 (active); viability (ATP), % of control: 130
Tceanc #1 | GFP, % of control: 78.9; viability (ATP), % of control: 102
Tceanc #2 | GFP, % of control: 66.4; viability (ATP), % of control: 51.2
Tceanc #3 | GFP, % of control: 107; viability (ATP), % of control: 102
Cd22 #1 | GFP, % of control: 100; viability (ATP), % of control: 99.9
Cd22 #2 | GFP, % of control: 83.2; viability (ATP), % of control: 85.2
Cd22 #3 | GFP, % of control: 93.3; viability (ATP), % of control: 90.7
Vmn1r13 #1 | GFP, % of control: 136 (active); viability (ATP), % of control: 116
Vmn1r13 #2 | GFP, % of control: 83.6; viability (ATP), % of control: 65.8
Vmn1r13 #3 | GFP, % of control: 76.6; viability (ATP), % of control: 97.9
Dbndd2 #1 | GFP, % of control: 57.5; viability (ATP), % of control: 84.1
Dbndd2 #2 | GFP, % of control: 77.7; viability (ATP), % of control: 94.5
Dbndd2 #3 | GFP, % of control: 60; viability (ATP), % of control: 61
Rasl12 #1 | GFP, % of control: 106; viability (ATP), % of control: 73.1
Rasl12 #2 | GFP, % of control: 88.6; viability (ATP), % of control: 74.1
Rasl12 #3 | GFP, % of control: 39.2; viability (ATP), % of control: 55.1
Rpgr #1 | GFP, % of control: 108; viability (ATP), % of control: 122
Rpgr #2 | GFP, % of control: 117; viability (ATP), % of control: 101
Rpgr #3 | GFP, % of control: 111; viability (ATP), % of control: 77.6
Scrn3 #1 | GFP, % of control: 85.4; viability (ATP), % of control: 95.9
Scrn3 #2 | GFP, % of control: 46.2; viability (ATP), % of control: 72.1
Scrn3 #3 | GFP, % of control: 96.1; viability (ATP), % of control: 78.7
Aven #1 | GFP, % of control: 37.6; viability (ATP), % of control: 47.1
Aven #2 | GFP, % of control: 84.4; viability (ATP), % of control: 93.1

5 of these entries in another layout:
{"gene symbol": "Vmn1r13", "reagent": 1, "GFP, % of control": "136 (active)", "viability (ATP), % of control": 116}
{"gene symbol": "Vmn1r13", "reagent": 2, "GFP, % of control": 83.6, "viability (ATP), % of control": 65.8}
{"gene symbol": "Vmn1r13", "reagent": 3, "GFP, % of control": 76.6, "viability (ATP), % of control": 97.9}
{"gene symbol": "Dbndd2", "reagent": 1, "GFP, % of control": 57.5, "viability (ATP), % of control": 84.1}
{"gene symbol": "Dbndd2", "reagent": 2, "GFP, % of control": 77.7, "viability (ATP), % of control": 94.5}
